The experiment is described as follows: qHTS Assay for Lipid Storage Modulators in Drosophila S3 Cells.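 For cell number change: cells counted by Cell Tracker Red CMTPX staining in the red channel.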 The conditions noted are these: BODIPY lipid droplet fluorescence, 18-24 h; for cell number change: measured here: cell count max response, cells fed with added oleic acid. The method in brief: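 Drosophila S3 cells got compounds at several concentrations plus oleic acid (400 uM solution). Laser-scanning cytometry with 488 nm excitation read lipid droplets at 500-530 nm and cells at 575-640 nm. Percent activity was relative to 20 uM Triacsin C.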

The mark [1] stands for this setting: measured here: cell number channel AC50, cells fed with added oleic acid.
The mark [2] stands for this setting: measured here: lipid fluorescence (Fed channel) AC50, cells fed with added oleic acid.

Some of the results follow. Shown are side measurements of this screen, not its main read-out; they come without a call. Compounds called inactive in the main read-out are mostly missing here. Potencies come from curve fits of mixed quality, noted in brackets.

As for `O=C(Cn1c2ccccc2c(=O)c2ccccc21)N/N=C/c1cc([N+](=O)[O-])ccc1N1CCCCCC1`, the cell number change came out at 1.49%. For the same compound, the concentration at half-maximal activity (AC50) under setting [1] is 4.61 µM [rising, partial curve]. Also, under setting [2], the AC50 is 5.17 µM [rising, partial curve].
Consider `COc1cc(CN2CCNC(=O)C2CC(=O)NC2CCCC2)cc(OC)c1` (stereo unspecified), for which the AC50 under setting [2] was 0.58 µM [falling, single point].
As to `CCOC(=O)c1ccc(N2C(=O)[C@@H](c3ccccc3)[C@H]2c2ccccc2)cc1`, the cell number change is -34%. Under setting [1], the AC50 is 16.4 µM [falling, partial curve, poor fit]. Further, the AC50 under setting [2] was 14.6 µM [falling, partial curve].
Take `CSc1ncccc1C(=O)OCc1c(F)cccc1Cl`: the cell number change worked out at 20.3%. Besides, the concentration at half-maximal activity (AC50) under setting [2] is 29.1 µM [falling, single point].
`COCCn1c(SCC(=O)Nc2c(C)n(C)n(-c3ccccc3)c2=O)nnc1-c1ccncc1`: the cell number change amounted to 13.5%. Also, the half-maximal activity concentration (AC50) under setting [1] was 6.51 µM [falling, partial curve, poor fit]. In addition, the AC50 under setting [2] is 6.51 µM [falling, partial curve, poor fit].
As for `CCN(CC(=O)Nc1c(Cl)cccc1Cl)C(=O)C1CCN(c2ncnc3sc(C)c(C)c23)CC1`, the half-maximal activity concentration (AC50) under setting [2] is 29.1 µM [falling, single point].
On to `COc1cc(/C=C2/SC(=Nc3ccc(O)cc3)NC2=O)cc(OC)c1O`, for which the cell number change is -6.51%. The AC50 under setting [2] is 4.11 µM [rising, single point].
Regarding `COc1ccc2oc(C(=O)Nc3ccccn3)c(C)c2c1`, the cell number change was -2.78%. Moreover, the half-maximal activity concentration (AC50) under setting [2] is 35.5 µM [falling, single point].
In the case of `Cc1cc(S(=O)(=O)NCCCn2ccnc2)c(C)cc1Cl`, the cell number change was 5.44%. Moreover, under setting [2], the AC50 was 0.82 µM [rising, full curve, poor fit].
As for `CCC1CCCCN1S(=O)(=O)c1ccc(S(=O)(=O)N(Cc2ccccn2)CC2CCCO2)cc1` (stereo unspecified), the cell number change was determined as 26.6%. Moreover, under setting [2], the AC50 was 14.6 µM [rising, partial curve].
With `O=C(CCC(=O)c1ccc(Oc2ccccc2)cc1)Nc1ccc(C(=O)O)cc1`, the cell number change was determined as 11.3%. Also, the half-maximal activity concentration (AC50) under setting [2] is 16.4 µM [rising, partial curve].
Turning to `S=c1nc[nH]c2c1ncn2C1CCCO1` (stereo unspecified), the cell number change came to 33.5%. The concentration at half-maximal activity (AC50) under setting [1] is 9.2 µM [rising, partial curve]. Moreover, under setting [2], the concentration at half-maximal activity (AC50) is 10.3 µM [rising, partial curve, poor fit].
`N#C/C(=C\c1ccc(OCc2ccc(Cl)cc2)cc1)C(=O)Nc1cccc(C(=O)O)c1`: the cell number change was 14.3%. The AC50 under setting [2] is 5.17 µM [rising, full curve].
On to `CCOc1ccc2cc(S(=O)(=O)N3CCOCC3)ccc2c1`, for which the cell number change is 29.7%. Further, under setting [1], the AC50 was 2.31 µM [rising, single point]. In addition, under setting [2], the concentration at half-maximal activity (AC50) is 4.61 µM [rising, single point].
Consider `O=C(COC(=O)CCc1ccc(S(=O)(=O)N2CCOCC2)cc1)NC1CCCCCC1`, for which the cell number change was -7.05%.
Regarding `CCCCOC(=O)c1ccc(N)cc1`, the cell number change amounted to 7.7%. Under setting [2], the half-maximal activity concentration (AC50) was 5.17 µM [rising, single point].
`O=C(Oc1ccccc1C(=O)N1CCOCC1)c1ccc(Br)cc1`: the cell number change is -11.7%. Besides, under setting [1], the AC50 was 0.651 µM [falling, full curve, poor fit].
`O=C(NCc1c(Cl)cccc1Oc1ccccc1)c1ccccc1`: the cell number change is -49.1%. In addition, the half-maximal activity concentration (AC50) under setting [1] was 32.6 µM [falling, single point]. In addition, the concentration at half-maximal activity (AC50) under setting [2] is 18.4 µM [falling, partial curve].
Consider `CCOc1ccc(NC(=O)CN(C)C(=O)CCCc2c[nH]c3ccccc23)cc1OCC`, for which the half-maximal activity concentration (AC50) under setting [1] is 1.46 µM [rising, partial curve].
Turning to `CCOC(=O)/C(C#N)=C/c1cc(C)n(-c2ccc(C)cc2)c1C`, the cell number change is -12.2%. Besides, the AC50 under setting [2] is 0.164 µM [falling, full curve, poor fit].
`CC(NC(=O)C1CCCN(S(=O)(=O)c2cccs2)C1)c1ccccc1` (stereo unspecified): under setting [2], the AC50 is 1.03 µM [rising, partial curve].
For `Cc1cnc(C(=O)NCCc2ccc(C(F)(F)F)cc2)cn1`, the cell number change was found to be 16.2%. Under setting [2], the concentration at half-maximal activity (AC50) was 4.11 µM [rising, full curve].
Take `S=C(Nc1ccccc1Cl)N1CCC(c2ccccc2)C1` (stereo unspecified): the cell number change is -17.5%. Further, the concentration at half-maximal activity (AC50) under setting [2] was 0.517 µM [falling, full curve, poor fit].
With `O=C(COc1ccc(F)cc1)Nc1nc(-c2ccccn2)cs1`, the cell number change is -50%. Moreover, the half-maximal activity concentration (AC50) under setting [1] was 25.9 µM [falling, single point].
With `O=C(Cn1c(=O)oc2cccnc21)Nc1ccccc1Oc1ccc(Cl)cc1Cl`, the cell number change worked out at 15.2%. Further, the AC50 under setting [2] is 23.1 µM [rising, partial curve, poor fit].
Regarding `Cc1cccc(N2C(=O)CN(Cc3cccs3)C2=S)c1`, the cell number change was 14.4%. The AC50 under setting [2] was 2.06 µM [rising, single point].
With `Oc1c(Br)cc(/C=N/n2c(-c3ccccc3)n[nH]c2=S)c(O)c1Br`, the cell number change is -12.4%. The AC50 under setting [2] is 32.6 µM [rising, single point].
Consider `COc1cccc(C(=O)C2CCCN(Cc3cn(C)nc3-c3ccccc3)C2)c1` (stereo unspecified), for which the cell number change was -56.6%. In addition, the AC50 under setting [1] is 16.4 µM [falling, partial curve]. Also, under setting [2], the AC50 was 8.2 µM [falling, partial curve].
In the case of `COC(=O)c1cc(CNC(=O)Cc2ccsc2)ccc1OC`, the cell number change amounted to 9.13%.
As to `COc1ccc(OCC(=O)N2CCc3ccccc3C2)cc1`, the cell number change is -1.46%. For the same compound, under setting [2], the AC50 was 29.1 µM [rising, partial curve, poor fit].
For the compound `CC(C)(C)c1ccccc1NC(=O)c1ccco1`, the cell number change is -7.71%. Under setting [2], the half-maximal activity concentration (AC50) is 0.103 µM [rising, partial curve].
`Cc1nn(C)cc1CN(C)C(=O)c1cc(-c2ccccc2)nc2ccc(Br)cc12`: the cell number change was 22.8%. Also, the concentration at half-maximal activity (AC50) under setting [1] was 3.66 µM [rising, single point]. In addition, the concentration at half-maximal activity (AC50) under setting [2] was 10.3 µM [rising, single point].
Consider `COc1ccc(C(=O)N2CCN(C3CCN(Cc4ccccc4)CC3)CC2)cc1OC`, for which the cell number change is -30.3%. Further, the AC50 under setting [1] is 0.206 µM [falling, full curve, poor fit]. The AC50 under setting [2] is 11.6 µM [falling, partial curve, poor fit].
On to `CCOC(=O)c1csc(CCNC(=O)c2oc3c(Cl)cc(C)cc3c2C)n1`, for which the cell number change is 12.5%. For the same compound, the AC50 under setting [1] is 6.51 µM [rising, single point].
For the compound `O=C(OCCN1C(=O)c2ccccc2C1=O)Oc1ccccc1`, the cell number change was found to be 21.2%. For the same compound, the AC50 under setting [2] is 6.51 µM [rising, single point].
Turning to `CC1CC(C)CN(C(=O)c2ccc(NC(=O)c3ccc(=O)[nH]c3)cc2)C1` (stereo unspecified), the cell number change is -17.5%. Besides, the AC50 under setting [2] is 0.00461 µM [falling, full curve, poor fit].
For the compound `O=C(CCNC(=O)c1ccc([N+](=O)[O-])cc1)NC1CCCc2ccccc21` (stereo unspecified), the cell number change was -13%.
Take `O=C(CN1CCOCC1)N/N=C/c1c(O)ccc2ccccc12`: the cell number change amounted to 3.23%. Further, under setting [2], the half-maximal activity concentration (AC50) was 18.4 µM [falling, single point].
Take `CC(C)C[C@H](NC(=O)NCc1ccc(F)cc1)C(=O)O`: the cell number change worked out at 0.3%. For the same compound, the AC50 under setting [2] is 0.651 µM [falling, full curve, poor fit].
Regarding `O=C(Cc1ccc(F)cc1)Nc1ccc(S(=O)(=O)N2CCCC2)cc1`, the cell number change is -18.1%.
Turning to `CCC(=O)NC(=S)Nc1cccc(NC(=O)CC)c1`, the cell number change is -22.9%. Further, the AC50 under setting [2] is 1.03 µM [falling, full curve].
For `CC(C)C[C@@H](NC(=O)C1CCC(CNC(=O)[C@H](Cc2ccccc2)NC(=O)OC(C)(C)C)CC1)C(=O)O` (stereo partly specified), the cell number change worked out at 13.9%.
On to `Cc1c(C(=O)NC(C)C2CC3CCC2C3)cccc1[N+](=O)[O-]` (stereo unspecified), for which the cell number change is -0.952%. The AC50 under setting [2] is 29.1 µM [falling, single point].
With `O=C(Nc1ccc(Cl)cc1F)C1CC1`, the cell number change is -0.471%. Moreover, the AC50 under setting [2] was 29.1 µM [rising, single point].
Take `CN(C)CCNC(=O)Cn1ccc2cc(S(=O)(=O)N3CCCCC3)ccc21`: the cell number change was found to be 14.7%.
`CN(C)CCCN1C(=O)c2oc3ccc(Cl)cc3c(=O)c2C1c1cccnc1` (stereo unspecified): the cell number change is 13.1%. In addition, the concentration at half-maximal activity (AC50) under setting [2] is 3.26 µM [rising, full curve].
Take `Cc1ccc2nc(N(CCN(C)C)C(=O)c3ccc4c(c3)OCCO4)sc2c1`: the AC50 under setting [2] is 23.1 µM [rising, partial curve, poor fit].
Regarding `Cc1nn(C)cc1NC(=O)Cn1nc(C(F)(F)F)cc1C1CC1`, the cell number change was -1.02%. Moreover, under setting [2], the half-maximal activity concentration (AC50) was 0.58 µM [falling, partial curve, poor fit].
For `CCOC(=O)CSc1nc(C)c(CC)c(C)c1C(N)=O`, the cell number change is 24.6%. Moreover, the AC50 under setting [2] was 0.0651 µM [falling, full curve, poor fit].
As to `CCCOc1ccc(/C=C/C(=O)NCc2ccccc2)cc1`, the cell number change was determined as 2.94%. Besides, the AC50 under setting [2] was 8.2 µM [rising, partial curve].
Turning to `CCOC(=O)c1cccc(NC(=O)C2CCCN(S(=O)(=O)c3c(C)n[nH]c3C)C2)c1` (stereo unspecified), the cell number change was -20.6%. Also, the AC50 under setting [1] was 0.164 µM [falling, full curve, poor fit].
With `CNC(=O)C(=O)Nc1c(C)cc(C)cc1C`, the AC50 under setting [1] is 6.51 µM [rising, single point].
Turning to `Cc1cc(C)c2c(N)c(C(=O)Nc3nccs3)sc2n1`, the cell number change is -7.94%.
Regarding `CCOc1ccc(NC(=O)CCSc2nc3c(c(CC)c2C#N)C(=O)CC(C)(C)C3)cc1`, the cell number change came to 42.4%. Besides, the AC50 under setting [1] was 1.46 µM [rising, full curve]. In addition, the AC50 under setting [2] is 1.3 µM [rising, full curve].
On to `CN1CCN(S(=O)(=O)c2ccc(NC(=O)c3ccc(F)cc3Cl)cc2)CC1`, for which the cell number change is 1.38%. Also, under setting [2], the AC50 is 2.91 µM [rising, single point].
For `CN(C)S(=O)(=O)c1cc(NC2CC(=O)N(c3ccc(F)cc3)C2=O)ccc1Cl` (stereo unspecified), the cell number change stood at 21.4%. In addition, the concentration at half-maximal activity (AC50) under setting [2] was 0.00517 µM [rising, full curve, poor fit].
In the case of `Cc1csc(NC(=O)c2cn3ccccc3n2)n1`, the cell number change amounted to 38.5%. Also, the AC50 under setting [1] was 13 µM [rising, single point].
As to `Cc1cc(OCC(=O)NC2CC2)c2c(C)cc(=O)oc2c1`, the half-maximal activity concentration (AC50) under setting [2] is 2.06 µM [rising, partial curve, poor fit].
Consider `O=C(Oc1ccccc1C(=O)N1CCOCC1)c1ccccc1`, for which, under setting [1], the AC50 was 4.61 µM [falling, single point].
Take `CC(C)Cn1c(N)c(C(=O)COC(=O)c2cc(C(F)(F)F)nc3ccccc23)c(=O)n(C)c1=O`: the cell number change is -70.4%. Under setting [1], the AC50 is 16.4 µM [falling, single point]. Moreover, the AC50 under setting [2] is 16.4 µM [falling, single point].

These data come from PubChem BioAssay AID2685 (National Center for Advancing Translational Sciences (NCATS), 2010).
